Patent publication US4342827A, “Production of enzymes” (Public Health Laboratory Service, Center for Applied …, priority 1978, dated 1982)

Experiment: Blank: dihydroxyacetone without enzyme, reduction of NAD in different buffers and pH
Conditions: 50 μl 0.5M, no enzyme

O=C(CO)CO [dihydroxyacetone]
ΔOD340 (carbonate/bicarbonate buffer, pH 8): 0
ΔOD340 (carbonate/bicarbonate buffer, pH 8.5): 0.31
ΔOD340 (carbonate/bicarbonate buffer, pH 9): 0.36
ΔOD340 (carbonate/bicarbonate buffer, pH 9.5): 0.94
ΔOD340 (phosphate buffer, pH 8): 0
ΔOD340 (phosphate buffer, pH 8.5): 0.17
ΔOD340 (phosphate buffer, pH 9): 0.34
ΔOD340 (phosphate buffer, pH 9.5): 0.63
ΔOD340 (triethanolamine/HCl buffer, pH 8): 0
ΔOD340 (triethanolamine/HCl buffer, pH 8.5): 0.03
ΔOD340 (triethanolamine/HCl buffer, pH 9): 0.21
ΔOD340 (triethanolamine/HCl buffer, pH 9.5): 0.48
